These results are taken from patent publication US20260201062A1 (JIANGSU HENGRUI MEDICINE CO., LTD., priority 2018, published 2026).

The data set is described as follows: general procedure: solution-phase peptide synthesis; 4-(4,6-dimethoxy-1,3,5-triazin-2-yl)-4-methylmorpholinium chloride. Conditions: for final HPLC purity: UPLC (ACQUITY UPLC BEH C18); for conjugation yield: conjugation step.

“N-((2S,10S)-10-Benzyl-2-cyclopropyl-1-(((1S,9S)-9-ethyl-5-ﬂuoro-9-hydroxy-4- methyl-10,13-dioxo-2,3,9,10,13,15-hexahydro-1H,12H-benzo[de]pyrano[3′,4′:6,7] indolizino[1,2-b]quinolin-1-yl)amino)-1,6,9,12,15-pentaoxo-3-oxa-5,8,11,14- tetraazahexadecan-16-y1)-6-(2,5-dioxo-2,5-dihydro-1H-pyrrol-1-y1)hexanamide 9-B”: the “final HPLC purity” value (coupling step) was 89%.

The substance “(9H-Fluoren-9-yl)methyl ((2S,10S)-10-benzyl-2-cyclopropyl-1-(((1S,9S)-9-ethyl-5-fluoro-9-hydroxy-4-methyl-10,13-dioxo-2,3,9,10,13,15-hexahydro-1H,12H-benzo[de]pyrano[3′,4′:6,7]indolizino[1,2-b]quinolin-1-yl)amino)-1,6,9,12,15-pentaoxo-3-oxa-5,8,11,14-tetraazahexadecan-16-yl)c arbamate” yielded a conjugation yield of 79.8%.

As to “(11S,19R)-11-Benzyl-19-cyclopropyl-1-(9H-fluoren-9-yl)-3,6,9,12,15-pentaoxo-2,18-dioxa-4,7,10,13,16-pentaazaicosan-20-oic acid”, the step yield (late stage modification step) is recorded as 79.1%.

Substance “(11S,19R)-11-benzyl-19-cyclopropyl-1-(9H-fluoren-9-yl)-3,6,9,12,15-pentaoxo-2,18-dioxa-4,7,10,13,16-pentaazaicosan-20-oate” registered a step yield (coupling step) of 77.1%.

“N-((2R,105)-10-Benzyl-2-cyclopropyl-1-(((1S,9S)-9-ethyl-5-ﬂuoro-9-hydroxy-4- methyl-10,13-dioxo-2,3,9,10,13,15-hexahydro-1H,12H-benzo[de]pyrano[3′,4′:6,7] indolizino[1,2-b]quinolin-1-yl)amino)-1,6,9,12,15-pentaoxo-3-oxa-5,8,11,14- tetraazahexadecan-16-y1)-6-(2,5-dioxo-2,5-dihydro-1H-pyrrol-1-y1)hexanamide 9-A”: the “final HPLC purity” value (coupling step) turned out to be 85%.

As to “(11S,19S)-11-Benzyl-19-cyclopropyl-1-(9H-fluoren-9-yl)-3,6,9,12,15-pentaoxo-2,18-dioxa-4,7,10,13,16-pentaazaicosan-20-oic acid”, the step yield (late stage modification step) was 99.2%.

In the case of “(S)-1-((11-Benzyl-1-(9H-fluoren-9-yl)-3,6,9,12,15-pentaoxo-2-oxa-4,7,10,13,16-pentaazaheptadecan-17-yl)oxy)cyclopropane-1-carboxylic acid”, where the note is “late stage modification step”, the step yield was found to be 84.1%.

Under “coupling step”, “2,4-Dimethoxybenzyl (11S,19S)-11-benzyl-19-cyclopropyl-1-(9H-fluoren-9-yl)-3,6,9,12,15-pentaoxo-2,18-dioxa-4,7,10,13,16-pentaazaicosan-20-oate” showed a step yield of 80.2%.

In turn, “1-(((S)-7-Benzyl-20-(2,5-dioxo-2,5-dihydro-1H-pyrrol-1-yl)-3,6,9,12,15-pentaoxo-2,5,8,11,14-pentaazaicosyl)oxy)-N-((1S,9S)-9-ethyl-5-fluoro-9-hydroxy-4-methyl-10,13-dioxo-2,3,9,10,13,15-hexahydro-1H,12H-benzo[de]pyrano[3′,4′:6,7]indolizino[1,2-b]quinolin-1-yl)cyclopropane-1-carboxamide 8” returned a step yield (coupling step) of 39.0%.

“(9H-Fluoren-9-yl)methyl ((2R,10S)-10-benzyl-2-cyclopropyl-1-(((1S,9S)-9-ethyl-5-fluoro-9-hydroxy-4-methyl-10,13-dioxo-2,3,9,10,13,15-hexahydro-1H,12H-benzo[de]pyrano[3′,4′:6,7]indolizino[1,2-b]quinolin-1-yl)amino)-1,6,9,12,15-pentaoxo-3-oxa-5,8,11,14-tetraazahexadecan-16-yl) carbamate” came in with a conjugation yield of 35.6%.

Take “2,4-Dimethoxybenzyl (S)-1-((11-benzyl-1-(9H-fluoren-9-yl)-3,6,9,12,15-pentaoxo-2-oxa-4,7,10,13,16-pentaazaheptadecan-17-yl)oxy)cyclopropane-1-carboxylate”: the step yield (coupling step) amounted to 83.9%.
